At least one compound was matched to its structure with a doubt left.
Tested on: E. Coli
Test: Scanning electron micrograph of microorganism after contact with the active ingredient
Conditions: E. Coli following contact with the active ingredient, FIG. 5

With `CC(=O)c1c(O)c(C)c(O)c2c1OC1=CC(=O)C(C(C)=O)C(=O)C12C` (stereo not shown) [active ingredient, usnic acid] the “effect on cell membrane of microorganism (SEM micrograph)” value was “flaking of a cell membrane”.

— US20230241427A1, “IMPROVED FILTERING MASK” (priority 2020, published 2023)
